Measurements as given in doi:10.1101/2022.05.24.493304.
Results are given in words; binding and its absence hold for the method and conditions named. In cells and extracts the contact can be indirect. Some results given as binding are weak or reduced against the parent protein; the word gives no strength.

T1: GS15 (BET1L) (human (endogenous in HEK293T)) (UniProt Q9NYM9)
T1 sequence: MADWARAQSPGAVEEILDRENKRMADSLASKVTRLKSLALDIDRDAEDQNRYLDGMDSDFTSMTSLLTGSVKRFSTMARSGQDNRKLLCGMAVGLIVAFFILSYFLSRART

T2: STX5 (human (endogenous in HEK293T)) (UniProt Q13190)
T2 sequence: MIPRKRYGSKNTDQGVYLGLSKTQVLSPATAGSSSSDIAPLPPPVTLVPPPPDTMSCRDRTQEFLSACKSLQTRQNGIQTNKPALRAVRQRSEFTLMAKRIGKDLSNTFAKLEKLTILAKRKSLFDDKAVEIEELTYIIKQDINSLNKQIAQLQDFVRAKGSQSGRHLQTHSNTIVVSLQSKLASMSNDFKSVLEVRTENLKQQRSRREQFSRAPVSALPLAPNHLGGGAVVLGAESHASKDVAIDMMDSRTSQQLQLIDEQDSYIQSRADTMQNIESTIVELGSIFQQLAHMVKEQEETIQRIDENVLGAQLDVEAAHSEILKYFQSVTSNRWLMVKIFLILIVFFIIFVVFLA

T3: SNAP29 (human (endogenous in HEK293T)), O95721
T3 chain: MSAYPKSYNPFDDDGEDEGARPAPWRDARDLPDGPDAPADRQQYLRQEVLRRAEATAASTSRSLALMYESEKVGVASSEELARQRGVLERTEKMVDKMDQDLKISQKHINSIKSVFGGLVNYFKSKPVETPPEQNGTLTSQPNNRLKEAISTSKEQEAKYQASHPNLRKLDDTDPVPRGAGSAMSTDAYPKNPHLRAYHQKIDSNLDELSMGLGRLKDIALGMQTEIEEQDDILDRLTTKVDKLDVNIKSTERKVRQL


Assays:
Experiment in all cases: co-IP
[1] = molecular target: T1, GS15 (BET1L) (human (endogenous in HEK293T))
[2] = molecular target: SNAP29 (human (endogenous in HEK293T)) (UniProt O95721)
[3] = molecular target: T2, STX5 (human (endogenous in HEK293T))
[4] = molecular target: T3, SNAP29 (human (endogenous in HEK293T)), …; details: remark: other sources report otherwise

| Binder | binding [1] | binding [2] | also measured |
| --- | --- | --- | --- |
| STX5 (protein, UniProt Q13190 1-355) MIPRKRYGSKNTDQGVYLGLSKTQVLSPATAGSSSSDIAPLPPPVTLVPPPPDTMSCRDRTQEFLSACKSLQTRQNGIQTNKPALRAVRQRSEFTLMAKRIGKDLSNTFAKLEKLTILAKRKSLFDDKAVEIEELTYIIKQDINSLNKQIAQLQDFVRAKGSQSGRHLQTHSNTIVVSLQSKLASMSNDFKSVLEVRTENLKQQRSRREQFSRAPVSALPLAPNHLGGGAVVLGAESHASKDVAIDMMDSRTSQQLQLIDEQDSYIQSRADTMQNIESTIVELGSIFQQLAHMVKEQEETIQRIDENVLGAQLDVEAAHSEILKYFQSVTSNRWLMVKIFLILIVFFIIFVVFLA | binds | binds |  |
| YKT6 (protein, UniProt O15498 1-198) MKLYSLSVLYKGEAKVVLLKAAYDVSSFSFFQRSSVQEFMTFTSQLIVERSSKGTRASVKEQDYLCHVYVRNDSLAGVVIADNEYPSRVAFTLLEKVLDEFSKQVDRIDWPVGSPATIHYPALDGHLSRYQNPREADPMTKVQAELDETKIILHNTMESLLERGEKLDDLVSKSEVLGTQSKAFYKTARKQNSCCAIM | binds |  |  |
| VTI1B (protein, UniProt Q9UEU0 1-232) MASSAASSEHFEKLHEIFRGLHEDLQGVPERLLGTAGTEEKKKLIRDFDEKQQEANETLAEMEEELRYAPLSFRNPMMSKLRNYRKDLAKLHREVRSTPLTATPGGRGDMKYGIYAVENEHMNRLQSQRAMLLQGTESLNRATQSIERSHRIATETDQIGSEIIEELGEQRDQLERTKSRLVNTSENLSKSRKILRSMSRKVTTNKLLLSIIILLELAILGGLVYYKFFRSH |  |  | binding [3]: binds |
| YKT6, O15498 1-198 (protein) MKLYSLSVLYKGEAKVVLLKAAYDVSSFSFFQRSSVQEFMTFTSQLIVERSSKGTRASVKEQDYLCHVYVRNDSLAGVVIADNEYPSRVAFTLLEKVLDEFSKQVDRIDWPVGSPATIHYPALDGHLSRYQNPREADPMTKVQAELDETKIILHNTMESLLERGEKLDDLVSKSEVLGTQSKAFYKTARKQNSCCAIM |  |  | binding [4]: no binding |
| COG3 (protein, UniProt Q96JB2 1-828) MAEAALLLLPEAAAERDAREKLALWDRRPDTTAPLTDRQTDSVLELKAAAENLPVPAELPIEDLCSLTSQSLPIELTSVVPESTEDILLKGFTSLGMEEERIETAQQFFSWFAKLQTQMDQDEGTKYRQMRDYLSGFQEQCDAILNDVNSALQHLESLQKQYLFVSNKTGTLHEACEQLLKEQSELVDLAENIQQKLSYFNELETINTKLNSPTLSVNSDGFIPMLAKLDDCITYISSHPNFKDYPIYLLKFKQCLSKALHLMKTYTVNTLQTLTSQLLKRDPSSVPNADNAFTLFYVKFRAAAPKVRTLIEQIELRSEKIPEYQQLLNDIHQCYLDQRELLLGPSIACTVAELTSQNNRDHCALVRSGCAFMVHVCQDEHQLYNEFFTKPTSKLDELLEKLCVSLYDVFRPLIIHVIHLETLSELCGILKNEVLEDHVQNNAEQLGAFAAGVKQMLEDVQERLVYRTHIYIQTDITGYKPAPGDLAYPDKLVMMEQIAQSLKDEQKKVPSEASFSDVHLEEGESNSLTKSGSTESLNPRPQTTISPADLHGMWYPTVRRTLVCLSKLYRCIDRAVFQGLSQEALSACIQSLLGASESISKNKTQIDGQLFLIKHLLILREQIAPFHTEFTIKEISLDLKKTRDAAFKILNPMTVPRFFRLNSNNALIEFLLEGTPEIREHYLDSKKDVDRHLKSACEQFIQQQTKLFVEQLEEFMTKVSALKTMASQGGPKYTLSQQPWAQPAKVNDLAATAYKTIKTKLPVTLRSMSLYLSNKDTEFILFKPVRNNIQQVFQKFHALLKEEFSPEDIQIIACPSMEQLSLLLLVSK |  | no binding |  |
